No constants are given. Whether binding was seen depends on the method and setting. Binding seen in cells or lysates may run through a third protein. Here binding means that the protein was enriched with, or labelled near, the bait; the list need not be complete.
Assays:
[1] = target: Conserved EAL domain protein RimA (P. fluorescens SBW25); test: affinity purification with mass spectrometry; C-terminally flag-tagged RimA, RimB or RimK expressed from pME6032 plasmids in P. fluorescens SBW25; lysate in IP buffer (20 mM HEPES pH 7.4, 100 mM NaCl, 1 mM EDTA, 1.0% Triton X-100, protease inhibitor), pre-cleared with protein-A agarose, ANTI-FLAG M2 affinity gel overnight at 4°C, 5 washes; interacting proteins detected by Orbitrap mass spectrometry; controls: M2 beads only and unrelated flag-tagged proteins (PFLU3129 and PFLU3130)
[2] = target: Ribosomal protein S6 modification protein RimK (P. fluorescens SBW25); test: as above

binding [1]: binds
binding [2]: binds
B1: UPF0229 protein PFLU5583 (protein, UniProt C3K332 1-423)
chain: MSYVIDRRLNGKNKSTVNRQRFLRRYRDHIKKAVEEAVSRRSITDMEHGEQISIPGRDIDEPVLHHGRGGKQTVVHPGNKEFTTGEHIQRPQGGGGGKGPGKAGNSGEGMDEFVFQITQEEFLEFMFEDLELPNLVKRNLTGTDTFKTVRAGISNEGNPSRINIIRTLRSAHARRIALSGSSRAKLRDAKEELARLKREEPDNFGDIQEIEAEIEKLSARIHRVPFLDTFDLKYNLLVKQPNPSSKAVMFCLMDVSGSMTQATKDIAKRFFILLYLFLKRNYDKIDVVFIRHHTSAREVDEEEFFYSRETGGTIVSSALKLMQEIMAERYPANEWNIYAAQASDGDNWNDDSPICRDILINQIMPFVQYYTYVEITPREHQALWFEYERIGEAFADTFAQQQLVSAGDIYPVFRELFQRRLVT

— paper PMC4741518, “Adaptive Remodeling of the Bacterial Proteome by Specific Ribosomal Modification Regulates Pseudomonas Infection and Niche Colonisation” (PLoS Genetics, 2016)
